In patent US20200331965A1 (EMORY UNIVERSITY, published 2020) one finds binding data, which are given here for one molecule.

No constants are given. Whether binding was seen depends on the method and setting. Binding seen in cells or lysates may run through a third protein. Some entries that bind do so weakly or less than the wild type.

This assay has as its target T1, native claudin-5 (rat alveolar epithelial cells) (rat) (UniProt Q9JKD6).
T1 sequence (looked up): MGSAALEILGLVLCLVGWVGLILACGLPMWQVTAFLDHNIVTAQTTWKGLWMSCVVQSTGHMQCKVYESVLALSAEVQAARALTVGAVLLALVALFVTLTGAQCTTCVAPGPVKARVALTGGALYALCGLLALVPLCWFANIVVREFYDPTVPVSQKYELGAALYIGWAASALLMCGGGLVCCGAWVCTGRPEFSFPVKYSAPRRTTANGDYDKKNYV
The assay can be described thus: co-immunopurification from rat AECs.

B1: native claudin-4 (rat alveolar epithelial cells) (protein)
chain: MASMGLQVLGISLAVLGWLGVILSCSLPMWRVTAFIGSNIVTAQTSWEGLWMNCVVQSTGQMQCKMYDSMLALPQDLQAARALMVISIIVGALGMLLSVVGGKCTNCMEDETVKAKVMITAGAVFIVASMLIMVPVSWTAHNVIRDFYNPLVASGQKREMGASLYIGWAASGLLLLGGGLLCCNCPPRRNEKPYSAKYSAARSVPASNYV
Regarding B1, the binding entry is given as “binds”.
